From doi:10.1101/2021.11.10.468148
Where two headings read alike, the source gives them in different places. These are yes or no findings as the source states them, for the method shown. In cells and extracts the contact can be indirect. Some results given as binding are weak or reduced against the parent protein; the word gives no strength. For some of these results: Where a sequence is shown, tags or fusion partners need not be part of it.

Amino acid sequences for entries named in this document (tags omitted). A change or cut given only in a name is not applied to a line headed by its entry.
UniProt Q13315, whole entry: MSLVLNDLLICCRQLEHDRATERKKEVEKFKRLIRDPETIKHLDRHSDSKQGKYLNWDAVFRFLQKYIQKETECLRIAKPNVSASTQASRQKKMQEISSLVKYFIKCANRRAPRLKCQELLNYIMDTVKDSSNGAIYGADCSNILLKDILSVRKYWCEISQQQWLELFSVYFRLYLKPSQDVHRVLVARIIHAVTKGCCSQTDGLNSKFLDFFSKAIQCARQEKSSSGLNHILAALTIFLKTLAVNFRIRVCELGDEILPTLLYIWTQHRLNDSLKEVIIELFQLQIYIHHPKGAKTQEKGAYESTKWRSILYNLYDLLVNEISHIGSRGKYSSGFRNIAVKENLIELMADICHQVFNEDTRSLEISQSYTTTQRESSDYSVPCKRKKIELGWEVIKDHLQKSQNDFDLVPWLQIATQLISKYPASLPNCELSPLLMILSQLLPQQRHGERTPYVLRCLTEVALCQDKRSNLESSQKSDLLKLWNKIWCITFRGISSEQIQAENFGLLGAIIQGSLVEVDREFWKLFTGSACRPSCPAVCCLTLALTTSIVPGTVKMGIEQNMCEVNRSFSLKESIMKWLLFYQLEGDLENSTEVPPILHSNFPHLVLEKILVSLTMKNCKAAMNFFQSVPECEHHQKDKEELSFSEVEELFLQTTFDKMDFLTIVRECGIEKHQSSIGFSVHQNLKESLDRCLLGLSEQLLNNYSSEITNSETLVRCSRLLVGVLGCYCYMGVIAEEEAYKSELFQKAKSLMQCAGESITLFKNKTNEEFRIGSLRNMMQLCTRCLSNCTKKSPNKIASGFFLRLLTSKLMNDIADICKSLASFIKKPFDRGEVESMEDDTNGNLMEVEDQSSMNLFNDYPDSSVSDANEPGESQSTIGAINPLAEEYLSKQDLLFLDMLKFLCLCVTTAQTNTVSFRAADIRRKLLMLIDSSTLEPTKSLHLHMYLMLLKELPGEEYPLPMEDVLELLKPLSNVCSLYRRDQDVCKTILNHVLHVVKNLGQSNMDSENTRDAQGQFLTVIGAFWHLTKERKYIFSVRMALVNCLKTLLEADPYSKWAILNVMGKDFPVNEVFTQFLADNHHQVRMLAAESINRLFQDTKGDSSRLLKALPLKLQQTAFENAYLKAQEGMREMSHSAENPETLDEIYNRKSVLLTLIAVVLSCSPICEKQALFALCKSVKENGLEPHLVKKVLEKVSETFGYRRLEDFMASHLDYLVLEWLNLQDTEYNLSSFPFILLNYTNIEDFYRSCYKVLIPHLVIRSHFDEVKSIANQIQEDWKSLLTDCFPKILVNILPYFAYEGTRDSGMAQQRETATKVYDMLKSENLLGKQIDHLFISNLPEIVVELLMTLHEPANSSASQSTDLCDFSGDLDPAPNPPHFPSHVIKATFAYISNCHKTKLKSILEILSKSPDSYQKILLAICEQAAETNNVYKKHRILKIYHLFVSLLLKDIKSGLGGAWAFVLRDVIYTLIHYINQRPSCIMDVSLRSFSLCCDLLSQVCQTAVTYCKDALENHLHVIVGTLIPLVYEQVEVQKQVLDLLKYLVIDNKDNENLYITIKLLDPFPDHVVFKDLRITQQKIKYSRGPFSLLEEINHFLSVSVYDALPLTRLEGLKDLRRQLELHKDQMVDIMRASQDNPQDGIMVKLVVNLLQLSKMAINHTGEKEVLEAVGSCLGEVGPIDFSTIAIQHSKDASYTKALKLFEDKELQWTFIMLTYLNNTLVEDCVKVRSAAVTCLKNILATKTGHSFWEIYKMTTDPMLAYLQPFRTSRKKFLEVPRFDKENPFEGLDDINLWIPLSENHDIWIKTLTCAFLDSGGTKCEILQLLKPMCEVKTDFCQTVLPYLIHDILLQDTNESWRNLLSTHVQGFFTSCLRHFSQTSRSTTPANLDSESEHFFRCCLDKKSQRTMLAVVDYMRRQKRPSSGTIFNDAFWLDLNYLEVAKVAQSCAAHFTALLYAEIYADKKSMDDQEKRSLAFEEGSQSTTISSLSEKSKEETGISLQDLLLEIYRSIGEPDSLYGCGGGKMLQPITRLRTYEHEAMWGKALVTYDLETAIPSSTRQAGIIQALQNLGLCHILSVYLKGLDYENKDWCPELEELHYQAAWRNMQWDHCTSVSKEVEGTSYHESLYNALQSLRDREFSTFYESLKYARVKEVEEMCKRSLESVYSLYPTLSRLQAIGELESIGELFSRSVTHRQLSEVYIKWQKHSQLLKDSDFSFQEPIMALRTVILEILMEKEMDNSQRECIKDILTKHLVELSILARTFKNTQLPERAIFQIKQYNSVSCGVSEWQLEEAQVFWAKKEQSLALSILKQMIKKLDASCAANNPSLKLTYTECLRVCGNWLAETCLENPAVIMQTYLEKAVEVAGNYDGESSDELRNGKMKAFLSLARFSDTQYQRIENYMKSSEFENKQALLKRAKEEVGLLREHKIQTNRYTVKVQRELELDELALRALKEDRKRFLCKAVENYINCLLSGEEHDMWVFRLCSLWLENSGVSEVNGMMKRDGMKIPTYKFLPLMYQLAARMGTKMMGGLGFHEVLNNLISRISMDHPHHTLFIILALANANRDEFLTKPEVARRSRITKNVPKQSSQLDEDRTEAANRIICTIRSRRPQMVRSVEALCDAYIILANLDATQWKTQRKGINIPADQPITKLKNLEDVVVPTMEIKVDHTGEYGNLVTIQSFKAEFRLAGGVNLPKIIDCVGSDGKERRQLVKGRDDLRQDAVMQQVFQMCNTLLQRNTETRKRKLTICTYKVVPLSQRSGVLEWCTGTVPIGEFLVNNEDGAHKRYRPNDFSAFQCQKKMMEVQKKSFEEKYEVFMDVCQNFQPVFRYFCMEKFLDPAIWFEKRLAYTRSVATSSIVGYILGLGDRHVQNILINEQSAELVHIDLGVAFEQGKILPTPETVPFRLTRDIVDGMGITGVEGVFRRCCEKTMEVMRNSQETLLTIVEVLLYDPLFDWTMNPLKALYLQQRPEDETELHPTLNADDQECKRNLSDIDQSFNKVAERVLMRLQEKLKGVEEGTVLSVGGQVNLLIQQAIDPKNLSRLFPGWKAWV
UniProt Q00534, whole entry: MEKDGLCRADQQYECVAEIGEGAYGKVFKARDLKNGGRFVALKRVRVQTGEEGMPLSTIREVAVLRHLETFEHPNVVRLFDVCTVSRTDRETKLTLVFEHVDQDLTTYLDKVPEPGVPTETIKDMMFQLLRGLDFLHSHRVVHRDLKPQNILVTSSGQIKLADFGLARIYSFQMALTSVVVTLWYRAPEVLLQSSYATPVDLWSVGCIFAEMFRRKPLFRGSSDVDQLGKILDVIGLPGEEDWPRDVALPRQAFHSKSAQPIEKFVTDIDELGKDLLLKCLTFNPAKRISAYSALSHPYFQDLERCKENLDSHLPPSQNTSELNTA

Legend:
Test in all cases: co-IP
[1] = molecular target: ataxia-telangiectasia mutated (ATM) protein kinase (human (endogenous in H460)) (UniProt Q13315)
[2] = molecular target: Protein Reprimo (RPRM), HA-tagged full-length (human) (UniProt Q9NS64)
[3] = molecular target: ataxia-telangiectasia mutated (ATM) protein kinase (human (endogenous in H460)) (UniProt Q13315); remark: listed apart in the source

Molecule	binding [1]	other results
RPRM-S98A mutant, HA-tagged (from UniProt Q9NS64 1-109)	binds	
cyclin-dependent kinase 6 (CDK6) (from UniProt Q00534 1-326)		binding [2]: binds
Protein Reprimo (RPRM), HA-tagged full-length (from UniProt Q9NS64 1-109)	binds	
RPRM deletion mutant Δ(79-109), HA-tagged (domain or fragment, UniProt Q9NS64 1-78) MNPALGNQTDVAGLFLANSSEALERAVRCCTQASVVTDDGFAEGGPDERSLYIMRVVQIAVMCVLSLTVVFGIFFLGC		binding [3]: binds
